doi:10.1101/289637
Like-named read-outs stand apart in the source and are kept apart here. These are yes or no findings as the source states them, for the method shown. In cells and extracts the contact can be indirect. Some entries that bind do so weakly or less than the wild type. For some of these results: Tags and fused reporters may be left off the sequences shown.

Chains of the proteins cited; added tags and fusions are not shown.
UniProt Q13616: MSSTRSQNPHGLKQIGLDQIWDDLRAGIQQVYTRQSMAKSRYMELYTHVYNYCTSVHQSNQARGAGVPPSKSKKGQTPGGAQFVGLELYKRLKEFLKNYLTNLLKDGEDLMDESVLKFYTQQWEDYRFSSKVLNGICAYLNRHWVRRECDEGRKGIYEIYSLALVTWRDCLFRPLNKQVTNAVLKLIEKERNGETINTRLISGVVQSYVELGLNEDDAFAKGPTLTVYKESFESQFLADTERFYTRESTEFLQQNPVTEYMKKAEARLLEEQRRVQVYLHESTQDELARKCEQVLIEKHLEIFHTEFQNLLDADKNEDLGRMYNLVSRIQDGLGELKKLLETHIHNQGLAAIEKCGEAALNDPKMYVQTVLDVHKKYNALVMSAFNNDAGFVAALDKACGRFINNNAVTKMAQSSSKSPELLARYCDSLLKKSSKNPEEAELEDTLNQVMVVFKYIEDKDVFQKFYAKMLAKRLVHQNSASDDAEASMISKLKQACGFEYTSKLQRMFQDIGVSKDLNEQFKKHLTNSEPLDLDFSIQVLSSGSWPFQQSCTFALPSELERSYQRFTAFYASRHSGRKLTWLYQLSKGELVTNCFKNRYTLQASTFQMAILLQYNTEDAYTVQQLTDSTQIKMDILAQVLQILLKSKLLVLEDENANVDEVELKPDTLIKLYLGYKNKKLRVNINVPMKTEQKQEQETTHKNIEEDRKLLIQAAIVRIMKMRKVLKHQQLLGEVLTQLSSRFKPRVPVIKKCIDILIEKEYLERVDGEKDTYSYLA
UniProt P29466: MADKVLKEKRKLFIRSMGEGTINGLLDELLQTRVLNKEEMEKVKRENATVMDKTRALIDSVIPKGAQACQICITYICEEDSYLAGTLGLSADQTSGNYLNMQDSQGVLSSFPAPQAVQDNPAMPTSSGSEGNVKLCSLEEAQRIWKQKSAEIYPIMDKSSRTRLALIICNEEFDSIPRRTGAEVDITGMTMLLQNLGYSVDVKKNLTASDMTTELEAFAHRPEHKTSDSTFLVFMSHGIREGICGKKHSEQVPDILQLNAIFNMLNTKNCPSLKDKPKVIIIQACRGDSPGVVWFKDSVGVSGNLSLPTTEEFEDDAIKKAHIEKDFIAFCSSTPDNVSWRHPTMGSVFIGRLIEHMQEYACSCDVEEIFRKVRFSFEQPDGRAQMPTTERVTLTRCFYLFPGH

B1: 3XFlag-PGM1 (protein, UniProt P36871 1-562)
chain: MVKIVTVKTQAYQDQKPGTSGLRKRVKVFQSSANYAENFIQSIISTVEPAQRQEATLVVGGDGRFYMKEAIQLIARIAAANGIGRLVIGQNGILSTPAVSCIIRKIKAIGGIILTASHNPGGPNGDFGIKFNISNGGPAPEAITDKIFQISKTIEEYAVCPDLKVDLGVLGKQQFDLENKFKPFTVEIVDSVEAYATMLRSIFDFSALKELLSGPNRLKIRIDAMHGVVGPYVKKILCEELGAPANSAVNCVPLEDFGGHHPDPNLTYAADLVETMKSGEHDFGAAFDGDGDRNMILGKHGFFVNPSDSVAVIAANIFSIPYFQQTGVRGFARSMPTSGALDRVASATKIALYETPTGWKFFGNLMDASKLSLCGEESFGTGSDHIREKDGLWAVLAWLSILATRKQSVEDILKDHWQKYGRNFFTRYDYEEVEAEGANKMMKDLEALMFDRSFVGKQFSANDKVYTVEKADNFEYSDPVDGSISRNQGLRLIFTDGSRIVFRLSGTGSAGATIRLYIDSYEKDVAKINQDPQVMLAPLISIALKVSQLQERTGRTAPTVIT

Legend:
Test in all cases: co-IP
[1] = molecular target: 3XFlag-Cullin1 (UniProt Q13616)
[2] = molecular target: 3XFlag-Cullin1 (UniProt Q13616); remark: listed apart in the source
[3] = molecular target: endogenous CUL1 (THP-1 macrophages) (human (endogenous in THP-1)) (UniProt Q13616)
[4] = molecular target: HA-NLRP3 (UniProt Q96P20)
[5] = molecular target: HA-NLRP3 (UniProt Q96P20); remark: listed apart in the source

| Molecule | binding [1] | binding [3] | also measured |
| --- | --- | --- | --- |
| NLRP3 (pcDNA3.1(+)-NLRP3, no tag named) (from UniProt Q96P20 1-1036) | binds | – | binding [2]: binds |
| HA-NLRP3 (from UniProt Q96P20 1-1036) | binds | – | – |
| endogenous NLRP3 (THP-1 macrophages) (from UniProt Q96P20 1-1036) | – | binds | – |
| 3XFlag-ATP1β3 (from UniProt P54709 1-279) | – | – | binding [4]: no binding |
| endogenous Casp-1 (THP-1 macrophages) (from UniProt P29466 1-404) | – | no binding | – |
| B1 | – | – | binding [5]: no binding |
